Binding data for 3 molecules are collected here from patent publication US20230089620A1.

The chains behind the UniProt entries cited, without tags or fusion partners. Residues count along the entry.
UniProt P60568, residues 21-153: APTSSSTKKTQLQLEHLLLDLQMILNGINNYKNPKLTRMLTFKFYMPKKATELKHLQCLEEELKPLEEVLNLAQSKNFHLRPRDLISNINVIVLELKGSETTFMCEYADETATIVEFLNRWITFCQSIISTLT

Results are given in words; binding and its absence hold for the method and conditions named. Some entries that bind do so weakly or less than the wild type.

B1: D3-68 full-length fully human anti-IL-2 antibody (antibody, human IgG1, kappa, L234A L235A, V domains shown)
VH: QVQLVQSGPEVKKPGASVKVSCKASGYTFTSYGISWVRRAPGQGLEWMGWISAYNGNTNYAQKLQGRVTMTTDTSTSTAYMELRSLRSDDTAVYYCARDLQSPTYYYGSGVIDYWGQGTLVTVSS
VL: DIQLTQSPSTLSASVGDRVTISCRASRAVSPWLAWYQHRPGQAPKLLIYAASSLQSGVPSRFSGSGSGTDFTLTISSLQPEDFATYYCQQYRSYPFTFGPGTTVDIRR
B2: D2-60 full-length fully human anti-IL-2 antibody (antibody, human IgG1, kappa, L234A L235A, V domains shown)
VH: QVQLVQSGAEVKKPGASVKVSCKASGYTFTSYGISWVRQAPGQGLEWMGWISAYNGNTNYAQKLQGRVTMTTDTSTSTAYMELRSLRSDDTAVYYCAREYSSWYSGGMDVWGQGTTVTVSS
VL: DIQMTQSPSSLSASVGDRVTITCRASQGISNYLAWYQQKPGKVPKLLIYAASTLQSGVPSRFSGSGSGTDFTLTISSLQPEDVATYYCQKYDSAPFTFGQGTRLEIKR
B3: C2-53 full-length fully human anti-IL-2 antibody (antibody, human IgG1, kappa, L234A L235A, V domains shown)
VH: EVQLVESGGGLVQPGRSLILSCAASGFTFDDYAMHWVRQAPGKGLEWVSGISWNSGSIGYADSVKGRFTISRDNAKNSLYLQMNSLRAEDTALYYCAKDQLRWGTYYYYGMDVWGQGTTVTVSS
VL: DIQMTQSPSTLSASVGDRVTITCRASQSVSIWVAWYQQKPGKAPKLLIYKASSLERGVPTRFSGSGSGTEFTLTISSLQPEDFATYHCQQYDTGATFGQGTKVEMKR

This test concerns the target IL-2 (C013, Novoprotein) (UniProt P60568). Briefly: SPR (Biacore T200), antibody captured on Protein A chip, IL-2 analyte. Background: Surface plasmon resonance follows binding to a sensor surface in real time, without labels.
For the molecule B1, the binding entry is listed as “binds”.
Under B2 stands “binds”; under B3, “binds”.
